From paper doi:10.1101/2022.03.15.484481
No constants are given. Whether binding was seen depends on the method and setting. Binding seen in cells or lysates may run through a third protein. Some binding calls cover weakened binding; strength is not graded here.

Protein sequences, listed by entry. Tags and fused reporters are not part of them.
UniProt Q9VCA8: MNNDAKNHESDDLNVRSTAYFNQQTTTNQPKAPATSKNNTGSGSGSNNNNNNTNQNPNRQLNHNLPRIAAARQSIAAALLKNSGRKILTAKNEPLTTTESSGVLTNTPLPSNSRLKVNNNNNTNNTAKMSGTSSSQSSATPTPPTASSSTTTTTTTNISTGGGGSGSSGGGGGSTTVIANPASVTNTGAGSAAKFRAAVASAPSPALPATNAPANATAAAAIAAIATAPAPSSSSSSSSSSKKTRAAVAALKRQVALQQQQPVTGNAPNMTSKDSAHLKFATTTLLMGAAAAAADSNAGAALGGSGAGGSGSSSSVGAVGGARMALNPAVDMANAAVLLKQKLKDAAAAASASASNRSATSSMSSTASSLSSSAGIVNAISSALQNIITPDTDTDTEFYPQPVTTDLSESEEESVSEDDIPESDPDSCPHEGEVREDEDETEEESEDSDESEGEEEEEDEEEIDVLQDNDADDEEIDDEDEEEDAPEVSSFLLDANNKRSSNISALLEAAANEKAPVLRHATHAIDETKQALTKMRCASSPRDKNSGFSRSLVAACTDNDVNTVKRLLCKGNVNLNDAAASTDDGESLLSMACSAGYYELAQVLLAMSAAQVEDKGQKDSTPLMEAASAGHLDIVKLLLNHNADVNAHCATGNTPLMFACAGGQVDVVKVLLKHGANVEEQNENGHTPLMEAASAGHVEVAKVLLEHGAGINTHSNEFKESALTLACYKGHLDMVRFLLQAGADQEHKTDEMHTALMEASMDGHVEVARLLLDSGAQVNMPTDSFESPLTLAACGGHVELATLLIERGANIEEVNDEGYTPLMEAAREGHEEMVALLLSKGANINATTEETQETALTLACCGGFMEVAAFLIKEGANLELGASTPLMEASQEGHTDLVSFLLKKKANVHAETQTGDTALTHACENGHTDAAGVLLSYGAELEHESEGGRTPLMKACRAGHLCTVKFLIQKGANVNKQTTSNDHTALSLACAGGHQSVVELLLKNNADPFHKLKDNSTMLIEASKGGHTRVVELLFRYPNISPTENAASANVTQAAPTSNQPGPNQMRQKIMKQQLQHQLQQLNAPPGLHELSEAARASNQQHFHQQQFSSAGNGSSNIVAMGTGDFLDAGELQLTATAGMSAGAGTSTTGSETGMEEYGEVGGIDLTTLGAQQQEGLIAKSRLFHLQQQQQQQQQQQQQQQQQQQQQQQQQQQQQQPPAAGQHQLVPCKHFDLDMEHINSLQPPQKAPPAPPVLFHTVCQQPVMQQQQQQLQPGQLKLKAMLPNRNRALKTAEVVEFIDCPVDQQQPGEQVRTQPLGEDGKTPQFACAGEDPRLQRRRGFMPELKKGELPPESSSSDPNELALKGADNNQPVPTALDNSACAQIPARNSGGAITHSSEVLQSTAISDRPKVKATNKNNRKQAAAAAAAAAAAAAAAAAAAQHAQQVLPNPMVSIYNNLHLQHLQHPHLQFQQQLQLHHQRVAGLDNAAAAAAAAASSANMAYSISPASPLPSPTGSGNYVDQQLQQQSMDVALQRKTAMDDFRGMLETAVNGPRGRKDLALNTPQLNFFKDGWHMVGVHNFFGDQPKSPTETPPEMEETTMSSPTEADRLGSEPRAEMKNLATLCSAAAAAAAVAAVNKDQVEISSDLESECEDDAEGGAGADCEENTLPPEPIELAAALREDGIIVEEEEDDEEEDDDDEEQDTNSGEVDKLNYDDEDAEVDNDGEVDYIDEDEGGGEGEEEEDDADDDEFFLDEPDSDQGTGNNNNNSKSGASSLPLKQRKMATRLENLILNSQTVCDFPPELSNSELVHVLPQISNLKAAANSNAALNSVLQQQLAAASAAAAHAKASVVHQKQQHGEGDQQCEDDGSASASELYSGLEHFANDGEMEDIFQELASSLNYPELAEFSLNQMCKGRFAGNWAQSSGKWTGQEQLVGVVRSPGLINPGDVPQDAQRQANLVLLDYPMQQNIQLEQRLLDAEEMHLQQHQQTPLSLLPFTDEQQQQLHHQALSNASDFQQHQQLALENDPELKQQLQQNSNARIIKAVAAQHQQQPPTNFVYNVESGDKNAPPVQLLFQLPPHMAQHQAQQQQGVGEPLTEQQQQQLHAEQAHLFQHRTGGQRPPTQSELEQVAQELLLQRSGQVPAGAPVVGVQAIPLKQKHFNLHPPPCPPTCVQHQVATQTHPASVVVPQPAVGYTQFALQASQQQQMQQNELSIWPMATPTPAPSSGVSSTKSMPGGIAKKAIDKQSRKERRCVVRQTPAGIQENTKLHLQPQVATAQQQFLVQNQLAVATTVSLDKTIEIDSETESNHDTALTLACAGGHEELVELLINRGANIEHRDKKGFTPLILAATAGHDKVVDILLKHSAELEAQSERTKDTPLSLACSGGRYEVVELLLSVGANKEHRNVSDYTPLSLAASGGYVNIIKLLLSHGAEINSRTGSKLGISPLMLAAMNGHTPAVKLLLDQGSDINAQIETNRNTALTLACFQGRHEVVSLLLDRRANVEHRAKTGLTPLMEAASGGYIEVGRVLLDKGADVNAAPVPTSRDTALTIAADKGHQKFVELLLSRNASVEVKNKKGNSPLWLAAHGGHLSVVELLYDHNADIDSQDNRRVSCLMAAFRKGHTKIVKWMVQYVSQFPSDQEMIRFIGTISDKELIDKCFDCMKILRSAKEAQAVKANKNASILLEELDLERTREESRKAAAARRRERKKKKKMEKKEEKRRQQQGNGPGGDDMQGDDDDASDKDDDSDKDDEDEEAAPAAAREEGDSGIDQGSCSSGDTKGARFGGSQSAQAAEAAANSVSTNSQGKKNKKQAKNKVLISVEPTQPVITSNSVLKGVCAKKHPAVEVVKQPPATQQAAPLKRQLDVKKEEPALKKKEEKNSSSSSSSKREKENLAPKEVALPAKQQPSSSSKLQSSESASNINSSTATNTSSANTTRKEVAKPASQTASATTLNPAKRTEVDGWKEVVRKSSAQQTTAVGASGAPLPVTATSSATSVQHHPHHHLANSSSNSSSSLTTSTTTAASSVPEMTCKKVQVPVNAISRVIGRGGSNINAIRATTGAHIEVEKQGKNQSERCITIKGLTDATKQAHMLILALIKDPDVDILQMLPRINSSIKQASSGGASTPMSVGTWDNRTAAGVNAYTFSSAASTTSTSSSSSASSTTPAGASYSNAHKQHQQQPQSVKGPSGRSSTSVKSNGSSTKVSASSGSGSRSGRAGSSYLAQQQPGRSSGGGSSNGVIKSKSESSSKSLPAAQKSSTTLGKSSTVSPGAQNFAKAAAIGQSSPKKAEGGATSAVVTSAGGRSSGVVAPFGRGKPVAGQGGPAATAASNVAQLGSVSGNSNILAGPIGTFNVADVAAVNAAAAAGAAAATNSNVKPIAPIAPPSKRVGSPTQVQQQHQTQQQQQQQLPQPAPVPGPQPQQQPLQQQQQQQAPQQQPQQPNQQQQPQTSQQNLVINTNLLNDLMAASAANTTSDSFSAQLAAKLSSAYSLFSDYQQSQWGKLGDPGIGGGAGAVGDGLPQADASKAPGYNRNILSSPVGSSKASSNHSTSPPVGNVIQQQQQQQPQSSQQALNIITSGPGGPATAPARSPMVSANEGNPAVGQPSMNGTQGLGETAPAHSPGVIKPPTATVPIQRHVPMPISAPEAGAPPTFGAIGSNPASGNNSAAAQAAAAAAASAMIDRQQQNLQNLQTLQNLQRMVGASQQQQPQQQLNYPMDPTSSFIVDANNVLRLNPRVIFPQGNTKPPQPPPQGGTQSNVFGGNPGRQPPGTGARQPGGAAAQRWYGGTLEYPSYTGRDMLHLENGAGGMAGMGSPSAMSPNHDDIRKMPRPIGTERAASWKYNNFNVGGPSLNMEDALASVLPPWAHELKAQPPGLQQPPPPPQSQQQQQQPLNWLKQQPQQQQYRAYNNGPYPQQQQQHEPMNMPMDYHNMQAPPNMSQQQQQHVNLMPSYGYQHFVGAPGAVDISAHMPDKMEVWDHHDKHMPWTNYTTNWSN

Biological target: FLAG-tagged full-length Mask protein (Multiple ankyrin repeats single KH domain) (Drosophila) (UniProt Q9VCA8)
Assay: co-IP

## CREB binding protein (CBP) (from UniProt Q9W321 1-3276)
  binding: binds
